This is one part of the list. Residues, ends and D or L forms follow the SMILES beside them. *: point of attachment. Cbz = O=C(OCc1ccccc1)*
Legend:
Experiment in all cases: log2 fold change, soluble protein after heating vs DMSO (PISA); higher = thermal stabilisation; K562 cells, 10 uM, 30 min; active = over 0.2 and 3.5 SD of the protein, either way, in both replicates (recomputed)
erlotinib = compound: C#Cc1cccc(Nc2ncnc3cc(OCCOC)c(OCCOC)cc23)c1 [erlotinib]
Summary of the method: (§1)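 K562 cells at 2×10^6 cells/mL were treated for 30 min with 10 μM compound, and aliquots were heated for 3 min over 48°C-58°C before pooling. Extraction used PBS with 0.5% NP-40 at 4°C, and soluble protein was the supernatant after 21,000xg for 90 min, measured by TMTpro 16plex LC-MS/MS with channel sums equalised. Thermal stability values, relative to control samples and from duplicates, are log2 fold changes.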

Protein sequences, listed by entry. Tags and fused reporters are not part of them. Lines headed by an entry give the natural chain unless they say otherwise; changes in a name come on top.
UniProt Q56A73: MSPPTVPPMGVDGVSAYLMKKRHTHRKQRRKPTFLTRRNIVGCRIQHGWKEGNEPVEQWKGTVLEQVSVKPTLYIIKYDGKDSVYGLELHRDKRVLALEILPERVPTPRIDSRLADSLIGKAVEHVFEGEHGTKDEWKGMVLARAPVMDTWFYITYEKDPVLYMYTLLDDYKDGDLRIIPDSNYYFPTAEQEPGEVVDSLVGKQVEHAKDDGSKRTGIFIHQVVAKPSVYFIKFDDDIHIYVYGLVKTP
UniProt Q9H8P0: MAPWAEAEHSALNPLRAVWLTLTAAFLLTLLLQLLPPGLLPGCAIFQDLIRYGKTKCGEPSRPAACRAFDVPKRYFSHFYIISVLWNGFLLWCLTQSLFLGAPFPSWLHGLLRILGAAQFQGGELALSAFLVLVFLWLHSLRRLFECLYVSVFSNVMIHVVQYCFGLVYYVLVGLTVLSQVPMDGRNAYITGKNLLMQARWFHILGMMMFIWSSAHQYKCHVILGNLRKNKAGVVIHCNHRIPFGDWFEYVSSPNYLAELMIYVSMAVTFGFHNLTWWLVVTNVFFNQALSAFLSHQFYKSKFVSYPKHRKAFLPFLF
UniProt Q9NUQ6: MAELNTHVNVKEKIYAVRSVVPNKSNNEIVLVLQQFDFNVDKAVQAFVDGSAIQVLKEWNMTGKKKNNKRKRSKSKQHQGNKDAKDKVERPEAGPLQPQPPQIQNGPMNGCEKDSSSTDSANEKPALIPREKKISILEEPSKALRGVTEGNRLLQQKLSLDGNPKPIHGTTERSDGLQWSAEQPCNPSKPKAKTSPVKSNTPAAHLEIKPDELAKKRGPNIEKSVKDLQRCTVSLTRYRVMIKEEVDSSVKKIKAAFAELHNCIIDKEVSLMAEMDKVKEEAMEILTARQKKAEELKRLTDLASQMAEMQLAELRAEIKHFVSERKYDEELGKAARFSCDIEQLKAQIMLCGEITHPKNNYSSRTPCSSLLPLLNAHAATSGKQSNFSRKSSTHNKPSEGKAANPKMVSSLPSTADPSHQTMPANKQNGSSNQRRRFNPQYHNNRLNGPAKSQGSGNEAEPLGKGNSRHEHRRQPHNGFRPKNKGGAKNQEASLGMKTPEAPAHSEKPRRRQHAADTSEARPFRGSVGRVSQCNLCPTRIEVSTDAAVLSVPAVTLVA
UniProt O43278: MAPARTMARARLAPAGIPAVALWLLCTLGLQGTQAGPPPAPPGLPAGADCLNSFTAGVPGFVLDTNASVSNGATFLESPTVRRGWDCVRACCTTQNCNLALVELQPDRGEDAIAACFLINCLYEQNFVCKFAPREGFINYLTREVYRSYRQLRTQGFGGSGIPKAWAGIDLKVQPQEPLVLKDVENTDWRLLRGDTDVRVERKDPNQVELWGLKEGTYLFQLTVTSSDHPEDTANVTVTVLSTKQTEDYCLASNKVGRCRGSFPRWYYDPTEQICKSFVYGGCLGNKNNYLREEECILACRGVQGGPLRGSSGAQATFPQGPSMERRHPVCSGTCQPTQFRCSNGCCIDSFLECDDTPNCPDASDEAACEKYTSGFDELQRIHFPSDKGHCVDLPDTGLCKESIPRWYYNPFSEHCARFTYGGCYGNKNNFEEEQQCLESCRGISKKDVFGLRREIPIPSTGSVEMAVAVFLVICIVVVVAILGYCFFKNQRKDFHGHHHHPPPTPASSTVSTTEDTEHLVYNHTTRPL
UniProt Q96EA4: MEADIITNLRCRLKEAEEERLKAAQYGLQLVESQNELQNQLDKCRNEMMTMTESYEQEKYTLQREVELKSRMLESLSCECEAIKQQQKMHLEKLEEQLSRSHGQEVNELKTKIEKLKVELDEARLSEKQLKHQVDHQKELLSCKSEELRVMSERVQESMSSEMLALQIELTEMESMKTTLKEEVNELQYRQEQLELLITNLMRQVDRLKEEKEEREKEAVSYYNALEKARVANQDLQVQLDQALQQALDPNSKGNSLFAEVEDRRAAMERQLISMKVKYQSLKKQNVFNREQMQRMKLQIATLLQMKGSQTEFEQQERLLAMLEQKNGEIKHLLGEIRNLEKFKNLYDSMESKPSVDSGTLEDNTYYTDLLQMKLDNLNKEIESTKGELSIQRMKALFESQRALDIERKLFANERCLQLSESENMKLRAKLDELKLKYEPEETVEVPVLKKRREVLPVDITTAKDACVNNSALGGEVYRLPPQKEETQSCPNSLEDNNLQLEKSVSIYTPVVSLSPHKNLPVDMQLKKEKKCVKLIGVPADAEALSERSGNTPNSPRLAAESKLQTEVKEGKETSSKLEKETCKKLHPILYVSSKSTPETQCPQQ
UniProt Q7Z698: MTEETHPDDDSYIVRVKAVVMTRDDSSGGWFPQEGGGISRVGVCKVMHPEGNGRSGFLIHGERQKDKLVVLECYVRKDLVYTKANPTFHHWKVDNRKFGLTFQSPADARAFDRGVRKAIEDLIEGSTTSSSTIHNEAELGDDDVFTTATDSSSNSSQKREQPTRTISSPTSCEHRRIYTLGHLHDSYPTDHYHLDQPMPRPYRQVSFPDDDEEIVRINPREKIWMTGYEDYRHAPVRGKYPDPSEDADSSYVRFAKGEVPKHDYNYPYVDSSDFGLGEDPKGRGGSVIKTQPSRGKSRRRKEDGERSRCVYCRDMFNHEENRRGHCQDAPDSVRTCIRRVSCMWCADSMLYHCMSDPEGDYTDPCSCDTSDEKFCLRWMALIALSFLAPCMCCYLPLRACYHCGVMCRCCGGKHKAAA
UniProt Q9Y6N5: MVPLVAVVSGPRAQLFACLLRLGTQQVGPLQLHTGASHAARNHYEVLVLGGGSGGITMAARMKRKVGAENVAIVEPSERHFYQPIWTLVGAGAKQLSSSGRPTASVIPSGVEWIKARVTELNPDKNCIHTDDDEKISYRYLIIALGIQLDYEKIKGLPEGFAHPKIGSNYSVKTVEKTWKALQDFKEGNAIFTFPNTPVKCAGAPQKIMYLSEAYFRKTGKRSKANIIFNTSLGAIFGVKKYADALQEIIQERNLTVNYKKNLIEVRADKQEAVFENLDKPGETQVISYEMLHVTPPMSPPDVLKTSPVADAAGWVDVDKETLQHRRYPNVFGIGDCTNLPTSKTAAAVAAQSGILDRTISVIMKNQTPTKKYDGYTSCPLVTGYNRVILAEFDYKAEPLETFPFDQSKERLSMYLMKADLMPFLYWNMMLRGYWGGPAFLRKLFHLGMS
UniProt O75716, whole entry, looked up: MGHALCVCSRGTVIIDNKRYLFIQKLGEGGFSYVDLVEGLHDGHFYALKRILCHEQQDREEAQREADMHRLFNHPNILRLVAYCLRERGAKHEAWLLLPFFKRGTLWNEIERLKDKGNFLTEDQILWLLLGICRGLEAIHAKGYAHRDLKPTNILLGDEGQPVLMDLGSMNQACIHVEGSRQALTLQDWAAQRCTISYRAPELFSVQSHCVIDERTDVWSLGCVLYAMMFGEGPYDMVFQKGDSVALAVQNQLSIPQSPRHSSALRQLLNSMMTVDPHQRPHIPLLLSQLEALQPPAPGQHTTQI
UniProt Q6ZUB1: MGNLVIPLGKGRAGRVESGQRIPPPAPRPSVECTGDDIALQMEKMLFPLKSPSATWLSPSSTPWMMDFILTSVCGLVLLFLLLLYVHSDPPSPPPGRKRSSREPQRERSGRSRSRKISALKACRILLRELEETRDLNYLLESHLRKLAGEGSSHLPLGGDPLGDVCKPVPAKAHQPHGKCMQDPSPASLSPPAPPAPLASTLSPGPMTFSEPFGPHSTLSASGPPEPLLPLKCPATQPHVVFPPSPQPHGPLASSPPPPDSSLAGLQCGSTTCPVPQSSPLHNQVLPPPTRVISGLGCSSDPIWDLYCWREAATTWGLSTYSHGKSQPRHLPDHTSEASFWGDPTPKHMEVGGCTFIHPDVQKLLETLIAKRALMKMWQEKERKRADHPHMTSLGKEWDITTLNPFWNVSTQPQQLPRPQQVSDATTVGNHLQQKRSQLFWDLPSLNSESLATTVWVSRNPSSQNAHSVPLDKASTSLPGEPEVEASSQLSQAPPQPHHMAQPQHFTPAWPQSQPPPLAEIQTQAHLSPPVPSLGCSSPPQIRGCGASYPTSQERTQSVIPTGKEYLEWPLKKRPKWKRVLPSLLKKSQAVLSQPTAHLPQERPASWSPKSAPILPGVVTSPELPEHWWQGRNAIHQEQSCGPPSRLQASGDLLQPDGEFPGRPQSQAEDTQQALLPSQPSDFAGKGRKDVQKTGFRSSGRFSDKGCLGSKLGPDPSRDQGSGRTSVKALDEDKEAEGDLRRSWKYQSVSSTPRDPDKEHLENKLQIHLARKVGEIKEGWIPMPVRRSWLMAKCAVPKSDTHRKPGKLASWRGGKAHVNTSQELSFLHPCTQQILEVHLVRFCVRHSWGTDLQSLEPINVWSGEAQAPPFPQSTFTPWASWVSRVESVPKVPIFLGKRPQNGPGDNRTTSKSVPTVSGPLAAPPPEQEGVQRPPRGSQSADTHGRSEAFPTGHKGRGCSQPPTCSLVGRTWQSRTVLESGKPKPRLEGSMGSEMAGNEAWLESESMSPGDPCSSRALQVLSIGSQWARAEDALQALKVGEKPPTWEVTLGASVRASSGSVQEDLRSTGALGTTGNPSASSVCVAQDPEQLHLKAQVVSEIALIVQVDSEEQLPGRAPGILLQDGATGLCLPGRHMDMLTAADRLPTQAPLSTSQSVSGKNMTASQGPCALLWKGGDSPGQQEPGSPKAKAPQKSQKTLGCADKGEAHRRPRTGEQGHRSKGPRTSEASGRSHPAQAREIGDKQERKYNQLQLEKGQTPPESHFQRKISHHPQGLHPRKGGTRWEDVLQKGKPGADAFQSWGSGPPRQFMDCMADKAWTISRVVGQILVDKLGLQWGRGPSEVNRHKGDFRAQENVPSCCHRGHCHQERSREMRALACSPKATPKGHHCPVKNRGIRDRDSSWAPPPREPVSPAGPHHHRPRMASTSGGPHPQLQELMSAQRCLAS
UniProt P49675, whole entry, looked up: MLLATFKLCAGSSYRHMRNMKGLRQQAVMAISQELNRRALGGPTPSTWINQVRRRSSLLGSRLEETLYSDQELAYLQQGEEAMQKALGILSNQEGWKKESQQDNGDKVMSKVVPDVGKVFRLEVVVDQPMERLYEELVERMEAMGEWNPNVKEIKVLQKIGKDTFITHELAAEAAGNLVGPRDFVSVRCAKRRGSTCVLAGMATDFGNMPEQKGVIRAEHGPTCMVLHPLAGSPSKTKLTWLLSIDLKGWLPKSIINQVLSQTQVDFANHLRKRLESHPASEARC
UniProt P35325: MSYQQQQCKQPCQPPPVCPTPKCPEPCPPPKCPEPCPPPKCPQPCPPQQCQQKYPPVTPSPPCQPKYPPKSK
UniProt P49842: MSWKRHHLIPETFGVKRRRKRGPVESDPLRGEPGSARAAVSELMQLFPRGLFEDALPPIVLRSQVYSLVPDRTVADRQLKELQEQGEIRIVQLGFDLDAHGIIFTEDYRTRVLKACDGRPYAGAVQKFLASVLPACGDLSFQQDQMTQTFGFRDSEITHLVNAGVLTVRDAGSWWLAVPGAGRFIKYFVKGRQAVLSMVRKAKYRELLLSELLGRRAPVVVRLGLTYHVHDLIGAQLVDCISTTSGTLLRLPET
UniProt Q8N5C6: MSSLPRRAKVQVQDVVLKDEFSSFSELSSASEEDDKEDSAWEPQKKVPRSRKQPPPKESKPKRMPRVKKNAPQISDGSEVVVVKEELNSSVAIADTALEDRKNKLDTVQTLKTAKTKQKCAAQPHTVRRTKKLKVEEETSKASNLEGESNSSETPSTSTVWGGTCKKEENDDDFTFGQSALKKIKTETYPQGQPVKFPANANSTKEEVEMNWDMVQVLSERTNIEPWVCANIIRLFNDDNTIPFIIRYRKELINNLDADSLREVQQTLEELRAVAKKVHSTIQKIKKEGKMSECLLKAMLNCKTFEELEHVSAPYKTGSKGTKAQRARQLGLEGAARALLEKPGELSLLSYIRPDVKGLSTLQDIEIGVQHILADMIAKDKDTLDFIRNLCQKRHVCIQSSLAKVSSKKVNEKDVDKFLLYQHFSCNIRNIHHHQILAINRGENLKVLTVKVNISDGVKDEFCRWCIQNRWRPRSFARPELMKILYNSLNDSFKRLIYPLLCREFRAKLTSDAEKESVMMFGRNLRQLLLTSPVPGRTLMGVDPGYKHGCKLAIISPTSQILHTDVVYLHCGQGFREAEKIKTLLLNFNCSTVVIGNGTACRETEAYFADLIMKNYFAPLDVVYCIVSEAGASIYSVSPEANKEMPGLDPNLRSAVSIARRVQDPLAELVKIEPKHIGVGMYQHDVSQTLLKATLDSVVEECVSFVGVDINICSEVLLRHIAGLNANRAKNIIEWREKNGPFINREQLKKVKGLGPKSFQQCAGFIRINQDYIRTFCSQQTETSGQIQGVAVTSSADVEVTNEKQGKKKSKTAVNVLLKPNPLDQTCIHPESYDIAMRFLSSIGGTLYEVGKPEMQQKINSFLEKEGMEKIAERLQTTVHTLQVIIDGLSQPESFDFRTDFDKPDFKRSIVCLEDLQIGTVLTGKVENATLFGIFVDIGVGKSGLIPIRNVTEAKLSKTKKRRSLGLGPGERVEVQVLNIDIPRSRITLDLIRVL

[1] = compound: C1=CC(=CC=C1C2=NC3=C(N2)C=C(C=C3)C(=O)N)OC4=CC=C(C=C4)Cl
Summary of the method: as §1

[2] = compound: C1=CC2=NC=CN=C2C=C1/C=C/3\C(=O)NC(=O)S3
Summary of the method: as §1

IRAK-1-4 Inhibitor I = compound: C1COCCN1CCN2C3=CC=CC=C3N=C2NC(=O)C4=CC(=CC=C4)[N+](=O)[O-] [IRAK-1-4 Inhibitor I]
Summary of the method: as §1

ibrutinib = compound: C=CC(=O)N1CCC[C@@H](n2nc(-c3ccc(Oc4ccccc4)cc3)c3c(N)ncnc32)C1 [ibrutinib]
Summary of the method: as §1

[3] = compound: CC(C)C1=C2N=C(C=C(N2N=C1)NCC3=CC=CC=C3)NCCCCCCN
Summary of the method: as §1

pinometostat = compound: CC(C)N(C[C@H]1O[C@@H](n2cnc3c(N)ncnc32)[C@H](O)[C@@H]1O)[C@H]1C[C@@H](CCc2nc3cc(C(C)(C)C)ccc3[nH]2)C1 [pinometostat]
Summary of the method: as §1

[4] = compound: C/C(=N\NC(=O)C1=CC(=CC=C1)S(=O)(=O)N2CCOCC2)/C3=C(C=CC(=C3)Cl)O
Summary of the method: as §1

[5] = compound: C1=CC2=C(C=CC(=C2)/C=C\3/C(=O)NC(=NCC4=CC=CS4)S3)N=C1
Summary of the method: as §1

[6] = compound: C1=CC=C(C=C1)C2=NC(=C(N2)C3=CC=NC=C3)C4=CC(=C(C=C4)Cl)O
Summary of the method: as §1

[7] = compound: C1=CC=C2C(=C1)C3=NNC4=CC=CC(=C43)C2=O
Summary of the method: as §1

[8] = compound: C1CCN(C1)C(=O)NC2=CC=CC(=C2)NC3=NC=C(C(=N3)NCCC4=CN=CN4)Br
Summary of the method: as §1

[9] = compound: C1CN(CCC1(CC2=CC=C(C=C2)Cl)N)C3=NC=NC4=C3C=CN4
Summary of the method: as §1

[10] = compound: CC(=O)c1cnc2ccc(-c3cc(Cl)c(O)c(Cl)c3)nc2c1N[C@H]1CC[C@H](CN(C)C)CC1
Summary of the method: as §1

ralimetinib = compound: CC(C)(C)Cn1c(N)nc2ccc(-c3[nH]c(C(C)(C)C)nc3-c3ccc(F)cc3)nc21 [ralimetinib]
Summary of the method: as §1

[11] = compound: CC(C)C[C@@H](C=O)NC(=O)[C@H](CC(C)C)NC(=O)[C@H](CC(C)C)NC(=O)OCc1ccccc1
Summary of the method: as §1

[12] = compound: CC1=C(C(CC(=O)N1)C2=CC=C(C=C2)C(F)(F)F)C(=O)NC3=C(C=C4C(=C3)C=NN4)F
Summary of the method: as §1

[13] = compound: CC1=C(C2=C(C=C1)C(=O)C3=CC=CC=C3N2CCCN)C
Summary of the method: as §1

[14] = compound: C1=CC(=C(C=C1Cl)C2=NC3=NC=CN=C3C(=N2)NC4=CC=NC=C4)F
Summary of the method: as §1

[15] = compound: CC(C)(O)CC(=O)NCCn1ccc2ncnc(Nc3ccc(Oc4cccc(C(F)(F)F)c4)c(Cl)c3)c21
Summary of the method: as §1

Measured: log2 fold change

STK17B (UniProt O94768)
inactive: erlotinib 0.128 | [1] 0.072 | [2] -0.169 | IRAK-1-4 Inhibitor I -0.12 | ibrutinib -0.235 | [3] -0.262 | pinometostat 0.033

SPATA33 isoform 2 (UniProt Q96N06)
inactive: erlotinib 0.04 | [4] 0.002 | [1] 0.012 | [5] -0.025 | [2] 0.078 | [6] -0.059 | [7] -0.015 | [8] -0.071 | [9] -0.1 | ibrutinib 0.004 | [10] 0.026 | ralimetinib -0.029 | [3] 0.208 | [11] -0.027 | [12] -0.095 | [13] -0.036

SPIRE2 (UniProt Q8WWL2)
inactive: [14] -0.362 | [2] 0.031 | [6] -0.611 | [8] 0.235 | [9] 0.258 | IRAK-1-4 Inhibitor I 0.137 | ibrutinib 0.065 | ralimetinib -0.036 | [15] 0.406 | [11] -0.185 | pinometostat -0.168 | [13] -0.401

SPIN4 (UniProt Q56A73)
inactive: erlotinib -0.125 | [1] 0.116 | IRAK-1-4 Inhibitor I 0.07 | [3] -0.079 | pinometostat 0.051

SPPL3 (UniProt Q8TCT6)
inactive: erlotinib -0.008 | [1] 0.113 | [3] -0.595

SPTY2D1 (UniProt Q68D10)
inactive: [14] -0.02 | [15] 0.134

SREBF1 isoform 4 (UniProt P36956)
inactive: erlotinib 0.034 | [14] 0.045 | [1] 0.001 | [2] 0.068 | IRAK-1-4 Inhibitor I 0.008 | ibrutinib 0.025 | [15] -0.404 | [3] -0.077 | pinometostat -0.088

SPRED1 (UniProt Q7Z699)
inactive: [4] -0.074 | [14] 0.005 | [5] 0.041 | [6] -0.103 | [7] 0.019 | [10] -0.177 | ralimetinib -0.019 | [15] -0.039 | [11] 0.039

SRGAP1 (UniProt Q7Z6B7)
inactive: [14] -0.044 | [2] -0.025 | [6] -0.049 | [8] -0.099 | [9] 0.03 | IRAK-1-4 Inhibitor I 0.011 | ibrutinib 0.137 | ralimetinib -0.005 | [15] -0.008 | [11] 0.042 | pinometostat 0.087 | [12] 0.002 | [13] -0.072

SRD5A3 (UniProt Q9H8P0)
inactive: erlotinib 0.055 | [4] -0.111 | [1] 0.035 | [5] -0.031 | [2] 0.074 | [6] 0.286 | [7] -0.18 | IRAK-1-4 Inhibitor I 0.104 | ibrutinib -0.112 | [10] -0.027 | ralimetinib -0.446 | [3] -0.424 | [11] 0.066 | pinometostat -0.044 | [12] 0.147

SREBF2 (UniProt Q12772)
inactive: erlotinib 0.044 | [14] 0.059 | [1] -0.065 | [2] -0.041 | IRAK-1-4 Inhibitor I 0.016 | ibrutinib -0.007 | [15] 0 | [3] 0.012 | pinometostat -0.02 | [12] 0.006

SPATS2L isoform 3 (UniProt Q9NUQ6)
inactive: [4] -0.314 | [14] -0.545 | [5] -0.05 | [7] -0.127 | [10] 0.046 | [15] 0.044

SSX1 (UniProt Q16384)
inactive: [4] -0.113 | [14] -0.302 | [5] -0.084 | [2] 0.087 | [7] 0.181 | ibrutinib 0.14 | [10] 0.019 | [15] 0.152

SSR2 (UniProt P43308)
inactive: [12] 0.283

SPINT1 (UniProt O43278)
inactive: erlotinib 0.036 | [14] -0.046 | [1] -0.007 | [6] -0.152 | IRAK-1-4 Inhibitor I -0.153 | ralimetinib -0.174 | [15] -0.02 | [3] 0.125 | [11] -0.041 | pinometostat 0.02

SPDL1 (UniProt Q96EA4)
inactive: erlotinib 0.075 | [1] -0.102 | [6] -0.228 | [8] -0.032 | [9] -0.134 | ralimetinib 0.009 | [3] -0.477 | [11] 0.16 | [13] -0.015

Taken from the entries so far (2 entries):
SPINT1 (UniProt O43278)
inactive: erlotinib 0.036 | [14] -0.046 | [1] -0.007 | [6] -0.152 | IRAK-1-4 Inhibitor I -0.153 | ralimetinib -0.174 | [15] -0.02 | [3] 0.125 | [11] -0.041 | pinometostat 0.02

SPDL1 (UniProt Q96EA4)
inactive: erlotinib 0.075 | [1] -0.102 | [6] -0.228 | [8] -0.032 | [9] -0.134 | ralimetinib 0.009 | [3] -0.477 | [11] 0.16 | [13] -0.015

Following part

ST3GAL1 (UniProt Q11201)
inactive: [14] 0.031 | [15] -0.038

SRXN1 (UniProt Q9BYN0)
inactive: [4] 0.335 | [14] 0.097 | [5] 0.036 | [2] 0.031 | [6] 0.004 | [7] -0.017 | [8] -0.021 | [9] 0.048 | IRAK-1-4 Inhibitor I -0.291 | ibrutinib -0.013 | [10] 0.12 | ralimetinib -0.134 | [15] -0.201 | [11] -0.024 | pinometostat 0.187 | [13] -0.026

SPRED2 (UniProt Q7Z698)
inactive: [4] 0.058 | [5] 0.026 | [7] 0 | [10] -0.051

ST8SIA6 (UniProt P61647)
inactive: [4] -0.209 | [5] 0.413 | [2] 0 | [7] -0.007 | IRAK-1-4 Inhibitor I 0.005 | ibrutinib -0.049 | [10] -0.067 | pinometostat 0.163

SQOR (UniProt Q9Y6N5)
inactive: erlotinib 0.042 | [14] -0.222 | [1] 0.134 | [15] 0.231 | [3] -0.076

SPATS2 (UniProt Q86XZ4)
inactive: erlotinib -0.126 | [1] -0.159 | [3] -0.265

STK16 (UniProt O75716)
inactive: erlotinib -0.095 | [14] 0.168 | [1] 0.171 | IRAK-1-4 Inhibitor I 0.157 | [15] 0.238 | [3] -0.298 | pinometostat -0.183

SPATA31E1 (UniProt Q6ZUB1)
inactive: [4] -0.274 | [5] 0.394 | [2] 0.044 | [6] 0 | [7] -0.179 | IRAK-1-4 Inhibitor I -0.003 | ibrutinib -0.1 | [10] -0.228 | ralimetinib -0.031 | [11] 0.094 | pinometostat 0.013 | [12] 0.014

SS18 (UniProt Q15532)
inactive: erlotinib -0.084 | [4] -0.161 | [1] -0.06 | [5] 0.168 | [2] 0.167 | [6] 0.249 | [7] 0.038 | [8] -0.104 | [9] -0.129 | ibrutinib -0.1 | [10] -0.087 | ralimetinib -0.088 | [3] -0.012 | [11] -0.136 | [12] 0.013 | [13] 0.304

STAR (UniProt P49675)
inactive: [6] -0.134 | ralimetinib 0.005 | [11] -0.05

STAB1 (UniProt Q9NY15)
inactive: erlotinib 0.775 | [14] -0.321 | [1] -0.025 | [2] 0.145 | [6] -0.072 | IRAK-1-4 Inhibitor I -0.064 | ibrutinib -0.103 | ralimetinib -0.158 | [15] 0.232 | [3] 0.019 | [11] -0.005 | pinometostat -0.021

SPRR2B (UniProt P35325)
inactive: erlotinib 0.107 | [14] 0.374 | [1] -0.275 | [2] 0.09 | ibrutinib 0.347 | [15] -0.168 | [3] 0.254 | [12] -0.059

STAT2 (UniProt P52630)
inactive: erlotinib 0.081 | [4] 0.038 | [1] 0 | [5] -0.111 | [2] -0.103 | [6] -0.04 | [7] -0.013 | [8] -0.143 | [9] 0.075 | IRAK-1-4 Inhibitor I -0.25 | ibrutinib 0.173 | [10] -0.014 | ralimetinib 0.181 | [3] -0.622 | [11] 0.215 | pinometostat 0.448 | [13] -0.017

STK19 (UniProt P49842)
inactive: [4] 0.14 | [5] 0.278 | [6] -0.174 | [7] -0.09 | [10] -0.316 | ralimetinib -0.313 | [11] 0.197

SSBP2 (UniProt P81877)
inactive: [14] 0.043 | [2] -0.067 | [6] -0.024 | ibrutinib 0.081 | ralimetinib -0.027 | [15] -0.089 | [11] 0.151

SRBD1 (UniProt Q8N5C6)
inactive: [14] -0.055 | [15] 0.088

Reference: the supplement of paper PMC10849652
